Results deposited as PubChem BioAssay AID1259254 (NCATS, 2017).

- Screen: 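Gene knock-downs that lead to re-replication, shown by excess G2 DNA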 (primary screen)
- Cell system: human HCT116 colorectal cancer cells
- Reagents: single siRNA against human genes
- Time to read-out: 3 days
- Detection: 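Nuclei stained with Hoechst and imaged; cell-cycle phase assigned by DNA content; G2 share scaled per plate, non-targeting siRNA 0%, GMNN siRNA 100%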
- Reading the numbers: G2 robust z-score: higher = more G2 cells, more excess DNA replication
- Hit rule: 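An siRNA counts as active if its G2 robust z-score lies at least 5 MADs above the screen median; here such calls match roughly 38% of GMNN control or more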
The whole screen tested about 59,000 reagents; below is an unselected part. About 1,550 of all reagents (2.6%) count as active. 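G2 share is only a proxy for re-replication; each gene was hit by three separate siRNAs, and active genes were retested.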 Reagents against one gene are numbered here. Further read-outs or replicates are left out here. Not given: the amount of reagent.

TCEAL1 (transcription elongation factor A like 1) #1 scored G2 robust z-score 0.0173; inactive.
Against TCEAL1 (transcription elongation factor A like 1) #2, the values are G2 robust z-score 2.3; inactive.
TCEAL1 (transcription elongation factor A like 1) #3 gave G2 robust z-score 0.67; inactive.
Silencing of FGF20 (fibroblast growth factor 20) #1 came out at: G2 robust z-score -0.071; inactive.
Silencing of FGF20 (fibroblast growth factor 20) #2 resulted in: G2 robust z-score 4.83; inactive.
Against FGF20 (fibroblast growth factor 20) #3 the deposit lists G2 robust z-score 0.55; inactive.
After knock-down of L3MBTL3 (L3MBTL histone methyl-lysine binding protein 3) #1, the screen gave G2 robust z-score -1.26; inactive.
With knock-down of L3MBTL3 (L3MBTL histone methyl-lysine binding protein 3) #2, the screen gave G2 robust z-score -0.0668; inactive.
L3MBTL3 (L3MBTL histone methyl-lysine binding protein 3) #3 gave G2 robust z-score -0.216; inactive.
GLB1L (galactosidase beta 1 like) #1 gave G2 robust z-score 3.8; inactive.
Against GLB1L (galactosidase beta 1 like) #2, the values are G2 robust z-score 0.506; inactive.
Against GLB1L (galactosidase beta 1 like) #3, the values are G2 robust z-score -0.319; inactive.
With knock-down of NFE2L1 (NFE2 like bZIP transcription factor 1) #1, the screen gave G2 robust z-score 0.49; inactive.
NFE2L1 (NFE2 like bZIP transcription factor 1) #2 scored G2 robust z-score -0.0605; inactive.
Depletion of NFE2L1 (NFE2 like bZIP transcription factor 1) #3 came out at: G2 robust z-score 0.963; inactive.
Against GDA (guanine deaminase) #1 the deposit lists G2 robust z-score 0.0752; inactive.
Against GDA (guanine deaminase) #2 the deposit lists G2 robust z-score 0.325; inactive.
With knock-down of GDA (guanine deaminase) #3, the record shows G2 robust z-score -0.118; inactive.
For ENTPD8 (ectonucleoside triphosphate diphosphohydrolase 8) #1 the deposit lists G2 robust z-score 2.87; inactive.
Depletion of ENTPD8 (ectonucleoside triphosphate diphosphohydrolase 8) #2 resulted in: G2 robust z-score 1.15; inactive.
For ENTPD8 (ectonucleoside triphosphate diphosphohydrolase 8) #3, the entry reads G2 robust z-score 0.283; inactive.
STAG3L4 (STAG3 cohesin complex component like 4 (pseudogene)) #1 showed G2 robust z-score 0.913; inactive.
Silencing of STAG3L4 (STAG3 cohesin complex component like 4 (pseudogene)) #2 gave: G2 robust z-score -0.627; inactive.
With knock-down of STAG3L4 (STAG3 cohesin complex component like 4 (pseudogene)) #3 the results were G2 robust z-score -0.319; inactive.
After knock-down of CEBPZ (CCAAT enhancer binding protein zeta) #1, the screen gave G2 robust z-score -0.855; inactive.
After knock-down of CEBPZ (CCAAT enhancer binding protein zeta) #2 the results were G2 robust z-score 0.96; inactive.
CEBPZ (CCAAT enhancer binding protein zeta) #3 scored G2 robust z-score 0.215; inactive.
ANKS1A (ankyrin repeat and sterile alpha motif domain containing 1A) #1 showed G2 robust z-score -0.993; inactive.
Against ANKS1A (ankyrin repeat and sterile alpha motif domain containing 1A) #2 the deposit lists G2 robust z-score 0.575; inactive.
ANKS1A (ankyrin repeat and sterile alpha motif domain containing 1A) #3 showed G2 robust z-score 4.43; inactive.

3 of these entries, set out differently.
target | siRNA no. | G2 robust z-score | call
FGF20 (fibroblast growth factor 20) | 3 | 0.55 | inactive
L3MBTL3 (L3MBTL histone methyl-lysine binding protein 3) | 1 | -1.26 | inactive
L3MBTL3 (L3MBTL histone methyl-lysine binding protein 3) | 2 | -0.0668 | inactive
